Measurements from paper PMC7449975.

The chains behind the UniProt entries cited, without tags or fusion partners. Where a name states a change or a piece, a line headed by the entry shows the natural chain unless it says otherwise. A line that says so, or that is headed by a name, gives the form on record, which may keep a tag or linker.
UniProt Q9NVP2: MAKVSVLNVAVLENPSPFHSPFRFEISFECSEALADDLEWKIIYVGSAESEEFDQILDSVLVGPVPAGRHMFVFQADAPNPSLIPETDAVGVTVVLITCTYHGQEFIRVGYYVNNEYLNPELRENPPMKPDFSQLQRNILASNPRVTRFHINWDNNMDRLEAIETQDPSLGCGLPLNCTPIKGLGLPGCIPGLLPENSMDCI
UniProt P30153: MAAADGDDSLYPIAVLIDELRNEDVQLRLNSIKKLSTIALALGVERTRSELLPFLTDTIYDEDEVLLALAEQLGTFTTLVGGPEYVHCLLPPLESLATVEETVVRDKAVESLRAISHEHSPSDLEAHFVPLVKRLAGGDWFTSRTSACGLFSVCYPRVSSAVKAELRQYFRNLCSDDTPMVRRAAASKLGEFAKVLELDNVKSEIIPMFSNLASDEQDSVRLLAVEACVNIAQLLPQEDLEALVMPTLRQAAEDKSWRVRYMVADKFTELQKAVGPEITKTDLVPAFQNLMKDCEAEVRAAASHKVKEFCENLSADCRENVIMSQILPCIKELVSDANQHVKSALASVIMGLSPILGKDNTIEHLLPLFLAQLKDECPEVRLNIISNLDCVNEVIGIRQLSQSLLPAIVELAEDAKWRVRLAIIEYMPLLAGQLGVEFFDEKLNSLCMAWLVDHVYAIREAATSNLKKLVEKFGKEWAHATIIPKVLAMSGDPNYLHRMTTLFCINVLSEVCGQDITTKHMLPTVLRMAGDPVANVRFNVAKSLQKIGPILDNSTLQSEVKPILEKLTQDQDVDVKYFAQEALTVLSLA
UniProt P06733: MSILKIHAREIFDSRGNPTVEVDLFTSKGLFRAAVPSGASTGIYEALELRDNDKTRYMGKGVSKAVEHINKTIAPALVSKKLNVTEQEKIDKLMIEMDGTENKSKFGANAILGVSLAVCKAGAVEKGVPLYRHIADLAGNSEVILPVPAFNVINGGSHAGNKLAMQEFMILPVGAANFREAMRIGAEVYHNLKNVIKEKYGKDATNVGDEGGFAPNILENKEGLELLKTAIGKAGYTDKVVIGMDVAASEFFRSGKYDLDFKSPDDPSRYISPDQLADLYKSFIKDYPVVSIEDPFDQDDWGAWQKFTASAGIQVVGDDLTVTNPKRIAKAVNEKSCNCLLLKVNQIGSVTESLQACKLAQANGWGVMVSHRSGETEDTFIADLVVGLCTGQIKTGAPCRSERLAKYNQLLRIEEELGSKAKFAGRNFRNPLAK
UniProt P26641: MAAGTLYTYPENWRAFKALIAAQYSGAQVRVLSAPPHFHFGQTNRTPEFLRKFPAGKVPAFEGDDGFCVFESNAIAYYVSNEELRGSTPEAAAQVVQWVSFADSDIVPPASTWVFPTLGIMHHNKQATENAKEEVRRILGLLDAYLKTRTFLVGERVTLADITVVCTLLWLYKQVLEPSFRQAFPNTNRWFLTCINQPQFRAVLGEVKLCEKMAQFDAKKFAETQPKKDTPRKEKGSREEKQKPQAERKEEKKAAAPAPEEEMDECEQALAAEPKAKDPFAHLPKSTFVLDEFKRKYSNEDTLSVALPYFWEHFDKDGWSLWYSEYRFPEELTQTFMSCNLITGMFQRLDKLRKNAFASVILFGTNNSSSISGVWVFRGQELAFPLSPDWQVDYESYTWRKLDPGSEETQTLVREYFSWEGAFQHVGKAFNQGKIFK
Isoform 2 of Y-box-binding protein 3 (P16989-2, form named): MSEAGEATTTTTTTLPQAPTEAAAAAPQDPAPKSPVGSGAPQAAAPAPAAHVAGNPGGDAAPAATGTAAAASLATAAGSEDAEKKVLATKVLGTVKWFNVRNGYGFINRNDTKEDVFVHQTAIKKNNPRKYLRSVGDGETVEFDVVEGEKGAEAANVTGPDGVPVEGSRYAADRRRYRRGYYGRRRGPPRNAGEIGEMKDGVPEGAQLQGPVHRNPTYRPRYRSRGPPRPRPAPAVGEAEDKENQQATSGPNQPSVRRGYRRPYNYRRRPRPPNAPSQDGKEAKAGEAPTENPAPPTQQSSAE
UniProt P50750: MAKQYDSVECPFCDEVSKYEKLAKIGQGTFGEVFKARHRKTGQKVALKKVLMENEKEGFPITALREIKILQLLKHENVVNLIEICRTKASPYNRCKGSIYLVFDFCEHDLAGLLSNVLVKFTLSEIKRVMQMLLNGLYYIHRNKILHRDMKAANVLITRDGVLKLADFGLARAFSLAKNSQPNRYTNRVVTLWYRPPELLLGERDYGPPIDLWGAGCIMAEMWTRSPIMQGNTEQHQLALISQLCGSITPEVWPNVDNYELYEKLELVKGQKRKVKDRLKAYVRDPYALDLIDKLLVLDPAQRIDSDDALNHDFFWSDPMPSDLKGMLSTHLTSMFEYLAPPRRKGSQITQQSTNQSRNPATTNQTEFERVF

Key:
Flag-ASF1B (human) [1] = target: Flag-ASF1B (human) (UniProt Q9NVP2); experiment: affinity purification with mass spectrometry; whole-cell extracts of Flag-ASF1B-transfected HeLa cells; anti-Flag affinity sepharose or normal iso-type antibody, overnight at 4 °C; SDS-PAGE, silver staining, LC-MS
Flag-ASF1B (human) [2] = target: Flag-ASF1B (human) (UniProt Q9NVP2); experiment: as above; remark: listed apart in the source

binding (Flag-ASF1B (human) [1]): binds
Molecule: Serine/threonine-protein phosphatase 2A 65 kDa regulatory subunit A alpha isoform (from UniProt P30153 1-589)

binding (Flag-ASF1B (human) [2]): binds
B1: Malate dehydrogenase, mitochondrial (protein, UniProt P40926 25-338)
chain: AKVAVLGASGGIGQPLSLLLKNSPLVSRLTLYDIAHTPGVAADLSHIETKAAVKGYLGPEQLPDCLKGCDVVVIPAGVPRKPGMTRDDLFNTNATIVATLTAACAQHCPEAMICVIANPVNSTIPITAEVFKKHGVYNPNKIFGVTTLDIVRANTFVAELKGLDPARVNVPVIGGHAGKTIIPLISQCTPKVDFPQDQLTALTGRIQEAGTEVVKAKAGAGSATLSMAYAGARFVFSLVDAMNGKEGVVECSFVKSQETECTYFSTPLLLGKKGIEKNLGIGKVSSFEEKMISDAIPELKASIKKGEDFVKTLK

binding (Flag-ASF1B (human) [2]): binds
B2: ATP-dependent RNA helicase DHX29 (protein, UniProt Q7Z478 1-1369)
chain: MGGKNKKHKAPAAAVVRAAVSASRAKSAEAGIAGEAQSKKPVSRPATAAAAAAGSREPRVKQGPKIYSFNSTNDSSGPANLDKSILKVVINNKLEQRIIGVINEHKKQNNDKGMISGRLTAKKLQDLYMALQAFSFKTKDIEDAMTNTLLYGGDLHSALDWLCLNLSDDALPEGFSQEFEEQQPKSRPKFQSPQIQATISPPLQPKTKTYEEDPKSKPKKEEKNMEVNMKEWILRYAEQQNEEEKNENSKSLEEEEKFDPNERYLHLAAKLLDAKEQAATFKLEKNKQGQKEAQEKIRKFQREMETLEDHPVFNPAMKISHQQNERKKPPVATEGESALNFNLFEKSAAATEEEKDKKKEPHDVRNFDYTARSWTGKSPKQFLIDWVRKNLPKSPNPSFEKVPVGRYWKCRVRVIKSEDDVLVVCPTILTEDGMQAQHLGATLALYRLVKGQSVHQLLPPTYRDVWLEWSDAEKKREELNKMETNKPRDLFIAKLLNKLKQQQQQQQQHSENKRENSEDPEESWENLVSDEDFSALSLESANVEDLEPVRNLFRKLQSTPKYQKLLKERQQLPVFKHRDSIVETLKRHRVVVVAGETGSGKSTQVPHFLLEDLLLNEWEASKCNIVCTQPRRISAVSLANRVCDELGCENGPGGRNSLCGYQIRMESRACESTRLLYCTTGVLLRKLQEDGLLSNVSHVIVDEVHERSVQSDFLLIILKEILQKRSDLHLILMSATVDSEKFSTYFTHCPILRISGRSYPVEVFHLEDIIEETGFVLEKDSEYCQKFLEEEEEVTINVTSKAGGIKKYQEYIPVQTGAHADLNPFYQKYSSRTQHAILYMNPHKINLDLILELLAYLDKSPQFRNIEGAVLIFLPGLAHIQQLYDLLSNDRRFYSERYKVIALHSILSTQDQAAAFTLPPPGVRKIVLATNIAETGITIPDVVFVIDTGRTKENKYHESSQMSSLVETFVSKASALQRQGRAGRVRDGFCFRMYTRERFEGFMDYSVPEILRVPLEELCLHIMKCNLGSPEDFLSKALDPPQLQVISNAMNLLRKIGACELNEPKLTPLGQHLAALPVNVKIGKMLIFGAIFGCLDPVATLAAVMTEKSPFTTPIGRKDEADLAKSALAMADSDHLTIYNAYLGWKKARQEGGYRSEITYCRRNFLNRTSLLTLEDVKQELIKLVKAAGFSSSTTSTSWEGNRASQTLSFQEIALLKAVLVAGLYDNVGKIIYTKSVDVTEKLACIVETAQGKAQVHPSSVNRDLQTHGWLLYQEKIRYARVYLRETTLITPFPVLLFGGDIEVQHRERLLSIDGWIYFQAPVKIAVIFKQLRVLIDSVLRKKLENPKMSLENDKILQIITELIKTENN

binding (Flag-ASF1B (human) [2]): binds
B4: Fork head box protein F1 (protein, UniProt Q12946 1-379)
chain: MSSAPEKQQPPHGGGGGGGGGGGAAMDPASSGPSKAKKTNAGIRRPEKPPYSYIALIVMAIQSSPTKRLTLSEIYQFLQSRFPFFRGSYQGWKNSVRHNLSLNECFIKLPKGLGRPGKGHYWTIDPASEFMFEEGSFRRRPRGFRRKCQALKPMYSMMNGLGFNHLPDTYGFQGSAGGLSCPPNSLALEGGLGMMNGHLPGNVDGMALPSHSVPHLPSNGGHSYMGGCGGAAAGEYPHHDSSVPASPLLPTGAGGVMEPHAVYSGSAAAWPPSASAALNSGASYIKQQPLSPCNPAANPLSGSLSTHSLEQPYLHQNSHNAPAELQGIPRYHSQSPSMCDRKEFVFSFNAMASSSMHSAGGGSYYHQQVTYQDIKPCVM

The next lines start with the molecule.

Molecule: Alpha-enolase (from UniProt P06733 1-434)
binding (Flag-ASF1B (human) [1]): binds

Molecule: Elongation factor 1-gamma (from UniProt P26641 1-437)
binding (Flag-ASF1B (human) [1]): binds

Molecule: Isoform 2 of Y-box-binding protein 3 (from UniProt P16989-2 1-303)
binding (Flag-ASF1B (human) [1]): binds

Molecule: cyclin-dependent kinase 9 (from UniProt P50750 1-372)
binding (Flag-ASF1B (human) [1]): binds

B3: Sjoegren syndrome/scleroderma autoantigen 1 (protein, UniProt O60232 1-199)
chain: MALNGAEVDDFSWEPPTEAETKVLQARRERQDRISRLMGDYLLRGYRMLGETCADCGTILLQDKQRKIYCVACQELDSDVDKDNPALNAQAALSQAREHQLASASELPLGSRPAPQPPVPRPEHCEGAAAGLKAAQGPPAPAVPPNTDVMACTQTALLQKLTWASAELGSSTSLETSIQLCGLIRACAEALRSLQQLQH
binding (Flag-ASF1B (human) [2]): binds

Where two headings read alike, the source gives them in different places. No constants are given. Whether binding was seen depends on the method and setting. Binding seen in cells or lysates may run through a third protein. These calls come from enrichment with a bait or labelling near it, and not all partners need be listed. One block for each molecule: values may come before it.
